Results are given in words; binding and its absence hold for the method and conditions named. In cells and extracts the contact can be indirect. Tags and fused reporters may be left off the sequences shown.
Legend:
Assay in all cases: split reporter; BiFC with split YFP fusions in N. benthamiana leaf epidermis after Agrobacterium infiltration; confocal microscopy
Conditions in all cases: remark: other sources report otherwise
[1] = target: T1, CLF, BiFC split YFP fusion (Arabidopsis thaliana), P93831
T1 chain: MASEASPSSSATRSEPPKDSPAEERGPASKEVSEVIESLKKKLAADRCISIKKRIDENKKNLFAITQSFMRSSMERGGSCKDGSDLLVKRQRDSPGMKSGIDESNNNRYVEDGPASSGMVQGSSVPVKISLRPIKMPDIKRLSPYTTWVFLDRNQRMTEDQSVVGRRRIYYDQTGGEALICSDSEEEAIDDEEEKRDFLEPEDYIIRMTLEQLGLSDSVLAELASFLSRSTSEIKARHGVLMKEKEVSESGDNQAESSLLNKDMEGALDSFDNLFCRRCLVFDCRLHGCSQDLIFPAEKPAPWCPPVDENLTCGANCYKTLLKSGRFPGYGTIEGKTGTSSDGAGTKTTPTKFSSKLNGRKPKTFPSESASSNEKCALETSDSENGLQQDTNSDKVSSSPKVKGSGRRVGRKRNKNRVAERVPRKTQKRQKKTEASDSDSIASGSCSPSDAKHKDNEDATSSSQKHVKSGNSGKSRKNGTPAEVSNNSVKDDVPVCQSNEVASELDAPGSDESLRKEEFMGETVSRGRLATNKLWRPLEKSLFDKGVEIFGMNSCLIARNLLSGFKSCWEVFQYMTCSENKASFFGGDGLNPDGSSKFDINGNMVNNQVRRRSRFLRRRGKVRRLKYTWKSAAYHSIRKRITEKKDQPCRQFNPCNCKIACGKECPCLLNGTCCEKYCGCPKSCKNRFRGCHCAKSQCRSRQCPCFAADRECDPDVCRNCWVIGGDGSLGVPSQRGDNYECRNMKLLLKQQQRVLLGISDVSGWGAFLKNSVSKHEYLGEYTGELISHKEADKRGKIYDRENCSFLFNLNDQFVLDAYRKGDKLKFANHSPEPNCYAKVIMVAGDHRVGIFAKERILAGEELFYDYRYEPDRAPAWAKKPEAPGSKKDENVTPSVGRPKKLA

[2] = target: T2, EMF2, BiFC split YFP fusion (Arabidopsis thaliana), Q8L6Y4
T2 chain: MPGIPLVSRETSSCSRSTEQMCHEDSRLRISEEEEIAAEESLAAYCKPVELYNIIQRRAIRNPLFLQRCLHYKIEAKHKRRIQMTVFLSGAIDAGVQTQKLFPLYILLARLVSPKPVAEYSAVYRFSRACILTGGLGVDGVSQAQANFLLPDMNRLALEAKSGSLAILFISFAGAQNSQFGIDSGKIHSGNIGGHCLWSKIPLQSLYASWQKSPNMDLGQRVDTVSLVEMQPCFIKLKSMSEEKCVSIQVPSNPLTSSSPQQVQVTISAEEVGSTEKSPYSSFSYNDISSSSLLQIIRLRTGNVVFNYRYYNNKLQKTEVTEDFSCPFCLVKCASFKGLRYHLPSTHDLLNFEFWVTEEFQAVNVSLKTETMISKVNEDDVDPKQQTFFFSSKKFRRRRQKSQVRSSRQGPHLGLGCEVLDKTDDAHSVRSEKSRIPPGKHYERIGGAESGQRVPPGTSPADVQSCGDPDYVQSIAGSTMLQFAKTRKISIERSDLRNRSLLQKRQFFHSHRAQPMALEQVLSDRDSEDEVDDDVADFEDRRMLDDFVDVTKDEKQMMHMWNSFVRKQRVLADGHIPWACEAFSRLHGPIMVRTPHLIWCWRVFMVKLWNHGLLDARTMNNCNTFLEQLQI

[3] = target: T3, SWN, BiFC split YFP fusion (Arabidopsis thaliana), Q9ZSM8
T3 chain: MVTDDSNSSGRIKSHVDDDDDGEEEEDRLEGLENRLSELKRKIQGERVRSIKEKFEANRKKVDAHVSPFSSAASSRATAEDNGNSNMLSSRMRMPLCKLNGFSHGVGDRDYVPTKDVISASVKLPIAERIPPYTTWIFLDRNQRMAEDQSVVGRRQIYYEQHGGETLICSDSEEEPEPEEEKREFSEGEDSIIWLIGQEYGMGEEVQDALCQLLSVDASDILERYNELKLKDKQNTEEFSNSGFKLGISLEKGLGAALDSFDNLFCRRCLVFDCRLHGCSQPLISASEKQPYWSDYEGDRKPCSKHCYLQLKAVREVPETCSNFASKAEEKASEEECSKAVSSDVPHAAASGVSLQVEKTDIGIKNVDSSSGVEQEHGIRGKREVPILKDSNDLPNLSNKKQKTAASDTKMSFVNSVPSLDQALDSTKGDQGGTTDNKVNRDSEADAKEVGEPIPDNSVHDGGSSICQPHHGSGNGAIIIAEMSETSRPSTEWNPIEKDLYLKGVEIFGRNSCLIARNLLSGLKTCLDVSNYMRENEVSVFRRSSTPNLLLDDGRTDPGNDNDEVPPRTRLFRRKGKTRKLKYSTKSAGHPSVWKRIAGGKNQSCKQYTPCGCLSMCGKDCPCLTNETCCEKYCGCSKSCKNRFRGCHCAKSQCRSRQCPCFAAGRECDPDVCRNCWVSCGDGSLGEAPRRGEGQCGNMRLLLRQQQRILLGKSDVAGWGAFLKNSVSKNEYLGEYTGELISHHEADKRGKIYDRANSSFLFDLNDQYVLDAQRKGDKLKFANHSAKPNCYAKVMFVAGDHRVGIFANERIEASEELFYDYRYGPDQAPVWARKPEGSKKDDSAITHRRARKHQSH

[4] = target: T4, FIE, BiFC split YFP fusion (Arabidopsis thaliana), Q9LT47
T4 chain: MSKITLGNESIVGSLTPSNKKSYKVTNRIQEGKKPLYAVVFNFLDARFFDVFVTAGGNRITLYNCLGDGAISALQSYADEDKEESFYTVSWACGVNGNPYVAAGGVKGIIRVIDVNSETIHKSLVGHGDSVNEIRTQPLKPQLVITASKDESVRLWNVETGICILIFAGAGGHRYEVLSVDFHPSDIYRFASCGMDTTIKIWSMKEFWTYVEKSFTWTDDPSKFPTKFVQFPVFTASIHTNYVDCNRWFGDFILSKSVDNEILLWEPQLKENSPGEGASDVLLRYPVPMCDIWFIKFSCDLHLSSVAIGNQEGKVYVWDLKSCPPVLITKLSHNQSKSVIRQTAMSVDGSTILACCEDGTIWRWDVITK

Measured: binding

B1: ALP1-nYFP (35S::ALP1-nYFP), BiFC fusion, Q94K49 1-396 (protein)
chain: MAPVKQKKKNKKKPLDKAKKLAKNKEKKRVNAVPLDPEAIDCDWWDTFWLRNSSPSVPSDEDYAFKHFFRASKTTFSYICSLVREDLISRPPSGLINIEGRLLSVEKQVAIALRRLASGDSQVSVGAAFGVGQSTVSQVTWRFIEALEERAKHHLRWPDSDRIEEIKSKFEEMYGLPNCCGAIDTTHIIMTLPAVQASDDWCDQEKNYSMFLQGVFDHEMRFLNMVTGWPGGMTVSKLLKFSGFFKLCENAQILDGNPKTLSQGAQIREYVVGGISYPLLPWLITPHDSDHPSDSMVAFNERHEKVRSVAATAFQQLKGSWRILSKVMWRPDRRKLPSIILVCCLLHNIIIDCGDYLQEDVPLSGHHDSGYADRYCKQTEPLGSELRGCLTEHLLR
no binding: [1] | [2] | [3] | [4]
